Data: PubChem BioAssay AID248 (DTP/NCI, 2004)
The list shows only some results of the screen, not a fair sample: it is rich in T/C values a quarter to a half above the control, in often repeated tests (any T/C) and in doses without a T/C. Further doses and runs are listed elsewhere. T/C gives the treated animals as a percentage of the vehicle group. Some doses have a count of surviving animals in place of a T/C: the source files T/C as zero there, which appears to mark a toxic dose or a test without result, not a measured value. Some survivor counts are full or nearly so, which does not show that the dose was tolerated: survival well below the control is almost never listed, so the zero probably covers shortened survival too. Counts of survivors are from the toxicity check (mostly the fifth day) where no day follows; animals may have died later. Schedule codes are those of the source, taken here to give the interval after Q, in days (D) or hours (H), and the number of doses after X. Some structures stand for samples that the source files as different forms (salt, stereo form or complex); doses refer to the form tested. Counts like (3×) give the number of equal values in this list. Some entries hold several experiments; their values stand side by side, smallest first. Where survival is the endpoint, the PubChem record calls one and a half times the control and up active, and a quarter to a half above the control has no call in these data; cut-offs in other NCI protocols can differ. Some T/C values are followed by the survivors on the day toxicity was checked, most often the fifth; without a count, all were alive then.

Tested on: L1210 leukemia ip in BDF1 mice, survival T/C
Test: NCI In Vivo Anticancer Drug Screen. Data for tumor model L1210 Leukemia (intraperitoneal) in B6D2F1 (BDF1) mice
Conditions: T/C endpoint: mean survival time, higher T/C = longer survival
[1] = dose: 100.0 mg/kg/injection, schedule: Q01DX001 (ip), vehicle: saline
[2] = dose: 100.0 mg/kg/injection, schedule: Q04DX003 (ip), vehicle: Klucel (hydroxypropylcellulose) (HPC)
[3] = dose: 200.0 mg/kg/injection, schedule: Q04DX003 (ip), vehicle: Klucel (hydroxypropylcellulose) (HPC)
[4] = dose: 400.0 mg/kg/injection, schedule: Q04DX003 (ip), vehicle: Klucel (hydroxypropylcellulose) (HPC)
[5] = dose: 20.0 mg/kg/injection, schedule: Q01DX001 (ip), vehicle: saline
[6] = dose: 40.0 mg/kg/injection, schedule: Q01DX001 (ip), vehicle: saline
[7] = dose: 200.0 mg/kg/injection, schedule: Q04DX002 (ip), vehicle: saline
[8] = dose: 400.0 mg/kg/injection, schedule: Q04DX002 (ip), vehicle: saline
[9] = dose: 400.0 mg/kg/injection, schedule: Q04DX003 (ip), vehicle: saline with Tween-80
[10] = dose: 17.0 mg/kg/injection, schedule: Q01DX001 (ip), vehicle: carboxymethylcellulose (CMC)

SMILES: NNC(=O)CNc1ccc(Br)cc1F
- survivor count (dose: 400.0 mg/kg/injection, schedule: Q04DX002 (ip), vehicle: Klucel (hydroxypropylcellulose) (HPC)): 1 of 3

SMILES: CCOC(=O)C(C[N+](C)(CC)CC)c1ccccc1 (configuration not stated)
- T/C (dose: 200.0 mg/kg/injection, schedule: Q01DX001 (ip), vehicle: carboxymethylcellulose (CMC)): 126 % of control

SMILES: OC1CC2c3ccccc3C1c1cccc[n+]12 (configuration not stated)
- survivor count (dose: 75.0 mg/kg/injection, schedule: Q01DX009 (ip), vehicle: Klucel (hydroxypropylcellulose) (HPC)): 6 of 6
- survivor count (dose: 115.0 mg/kg/injection, schedule: Q01DX009 (ip), vehicle: Klucel (hydroxypropylcellulose) (HPC)): 2 of 6
- survivor count (dose: 170.0 mg/kg/injection, schedule: Q01DX009 (ip), vehicle: Klucel (hydroxypropylcellulose) (HPC)): 0 of 6
- survivor count (dose: 200.0 mg/kg/injection, schedule: Q04DX003 (ip), vehicle: saline): 0 of 6
- survivor count (dose: 400.0 mg/kg/injection, schedule: Q04DX003 (ip), vehicle: saline): 0 of 6

SMILES: COC(=O)C1C(=O)OC(C)(C)C1c1ccccc1 (configuration not stated)
- T/C [1]: 134 % of control

SMILES: Clc1ccc2c(c1)C1=NCCCN1c1cc(Cl)ccc1-2
- survivor count (dose: 40.0 mg/kg/injection, schedule: Q04DX003 (ip), vehicle: Klucel (hydroxypropylcellulose) (HPC)): 0 of 6
- survivor count (dose: 80.0 mg/kg/injection, schedule: Q04DX003 (ip), vehicle: Klucel (hydroxypropylcellulose) (HPC)): 0 of 6
- survivor count [2]: 0 of 6
- survivor count [3]: 0 of 6
- survivor count [4]: 0 of 6

SMILES: CC1=CC23C(COC(=O)C24CO4)C(C(=O)O)=CC3C1C (configuration not stated)
- survivor count [5]: 2 of 6
- survivor count [6]: 0 of 6
- survivor count (dose: 75.0 mg/kg/injection, schedule: Q01DX001 (ip), vehicle: saline): 0 of 6
- survivor count (dose: 150.0 mg/kg/injection, schedule: Q01DX001 (ip), vehicle: saline): 0 of 6
- survivor count (dose: 300.0 mg/kg/injection, schedule: Q01DX001 (ip), vehicle: saline): 0 of 6

SMILES: Clc1cc2c(cc1CO/N=C\c1ccc3c(c1)OCO3)OCO2
- survivor count (dose: 400.0 mg/kg/injection, schedule: Q04DX003 (ip), vehicle: saline sonified): 6 of 6

SMILES: CCCCCCCCCCCCCCCCCC1=NCCN1CCN
- survivor count (dose: 100.0 mg/kg/injection, schedule: Q01DX009 (ip), vehicle: saline): 3 of 6
- survivor count (dose: 200.0 mg/kg/injection, schedule: Q01DX001 (ip), vehicle: acetone): 0 of 6
- survivor count (dose: 400.0 mg/kg/injection, schedule: Q01DX001 (ip), vehicle: acetone): 0 of 6

SMILES: CCNCCCNCC(Cc1ccccc1)c1ccccc1 (configuration not stated)
- survivor count [7]: 1 of 3
- survivor count [8]: 0 of 3

SMILES: O=C(Nc1cccc(Cl)c1)Oc1ccc(S(=O)(=O)F)cc1Cl
- survivor count (dose: 400.0 mg/kg/injection, schedule: Q04DX002 (ip), vehicle: saline with Tween-80): 0 of 3

SMILES: Nc1nc(N)c2cc(NCc3ccc(Br)cc3)ccc2n1
- survivor count (dose: 25.0 mg/kg/injection, schedule: Q01DX009 (ip), vehicle: saline with Tween-80): 3 of 6
- survivor count (dose: 50.0 mg/kg/injection, schedule: Q04DX003 (ip), vehicle: saline): 1 of 6
- survivor count (dose: 100.0 mg/kg/injection, schedule: Q04DX003 (ip), vehicle: saline): 0 of 6

SMILES: N#CCc1c(Cl)ccc(Cl)c1Cl
- survivor count (dose: 100.0 mg/kg/injection, schedule: Q01DX009 (ip), vehicle: Klucel (hydroxypropylcellulose) (HPC)): 1 of 6
- survivor count (dose: 200.0 mg/kg/injection, schedule: Q01DX009 (ip), vehicle: Klucel (hydroxypropylcellulose) (HPC)): 0 of 6
- survivor count [3]: 1 of 6
- survivor count [4]: 2 of 6

SMILES: O=C(CCN1CCCCC1)c1cc(Cl)ccc1Cl
- survivor count (dose: 50.0 mg/kg/injection, schedule: Q01DX009 (ip), vehicle: saline): 3 of 3
- survivor count [7]: 0 of 3
- survivor count [8]: 0 of 3

SMILES: COC1OC2COCOC2C(OS(=O)(=O)c2ccc(C)cc2)C1OS(=O)(=O)c1ccc(C)cc1 (configuration not stated)
- survivor count [9]: 6 of 6

SMILES: COc1ccc(Cl)cc1NC(=O)N(CCCl)N=O
- T/C (dose: 0.2 mg/kg/injection, schedule: Q01DX009 (ip), vehicle: carboxymethylcellulose (CMC)): 130 % of control
- T/C (dose: 0.4 mg/kg/injection, schedule: Q01DX009 (ip), vehicle: carboxymethylcellulose (CMC)): 146 % of control
- T/C (dose: 0.7 mg/kg/injection, schedule: Q01DX009 (ip), vehicle: carboxymethylcellulose (CMC)): 140 % of control
- T/C (dose: 1.5 mg/kg/injection, schedule: Q01DX009 (ip), vehicle: carboxymethylcellulose (CMC)): 135 % of control
- T/C (dose: 3.0 mg/kg/injection, schedule: Q01DX009 (ip), vehicle: carboxymethylcellulose (CMC)): 143 % of control
- T/C (dose: 4.0 mg/kg/injection, schedule: Q01DX001 (ip), vehicle: carboxymethylcellulose (CMC)): 128 % of control
- T/C (dose: 8.0 mg/kg/injection, schedule: Q01DX001 (ip), vehicle: carboxymethylcellulose (CMC)): 138 % of control
- T/C (dose: 8.5 mg/kg/injection, schedule: Q01DX001 (ip), vehicle: Klucel (hydroxypropylcellulose) (HPC)): 141 % of control
- T/C (dose: 9.0 mg/kg/injection, schedule: Q01DX009 (ip), vehicle: Klucel (hydroxypropylcellulose) (HPC)): 135 % of control
- T/C (dose: 13.3 mg/kg/injection, schedule: Q01DX009 (ip), vehicle: carboxymethylcellulose (CMC)): 131 % of control
- T/C [10]: 126 % of control
- survivor count [10]: 5 of 6
- T/C (dose: 17.0 mg/kg/injection, schedule: Q01DX009 (ip), vehicle: Klucel (hydroxypropylcellulose) (HPC)): 146 % of control [5 of 6 alive]
- survivor count (dose: 40.0 mg/kg/injection, schedule: Q01DX001 (ip), vehicle: carboxymethylcellulose (CMC)): 5 of 6
- survivor count (dose: 40.0 mg/kg/injection, schedule: Q01DX009 (ip), vehicle: Klucel (hydroxypropylcellulose) (HPC)): 6 of 6
- survivor count (dose: 60.0 mg/kg/injection, schedule: Q01DX001 (ip), vehicle: carboxymethylcellulose (CMC)): 3 of 6
- survivor count (dose: 60.0 mg/kg/injection, schedule: Q01DX009 (ip), vehicle: Klucel (hydroxypropylcellulose) (HPC)): 6 of 6
- survivor count (dose: 150.0 mg/kg/injection, schedule: Q01DX001 (ip), vehicle: carboxymethylcellulose (CMC)): 5 of 6
- survivor count (dose: 300.0 mg/kg/injection, schedule: Q01DX001 (ip), vehicle: carboxymethylcellulose (CMC)): 0 of 6

SMILES: C=CC(=O)O
- survivor count (dose: 6.25 mg/kg/injection, schedule: Q04DX003 (ip), vehicle: saline): 0 of 6
- survivor count (dose: 12.5 mg/kg/injection, schedule: Q04DX003 (ip), vehicle: saline with Tween-80): 1 of 6
- survivor count [5]: 0 of 6
- survivor count (dose: 25.0 mg/kg/injection, schedule: Q04DX003 (ip), vehicle: saline with Tween-80): 1 of 6
- survivor count [6]: 0 of 6 and 1 of 6
- survivor count (dose: 50.0 mg/kg/injection, schedule: Q01DX001 (ip), vehicle: saline): 4 of 4
- survivor count (dose: 50.0 mg/kg/injection, schedule: Q04DX003 (ip), vehicle: Klucel (hydroxypropylcellulose) (HPC)): 2 of 3
- survivor count (dose: 50.0 mg/kg/injection, schedule: Q04DX003 (ip), vehicle: saline with Tween-80): 1 of 6
- survivor count (dose: 80.0 mg/kg/injection, schedule: Q01DX001 (ip), vehicle: saline): 0 of 6 and 2 of 6
- survivor count [1]: 0 of 6 (2×)
- survivor count [2]: 0 of 3
- survivor count (dose: 100.0 mg/kg/injection, schedule: Q04DX003 (ip), vehicle: saline with Tween-80): 6 of 6
- survivor count (dose: 200.0 mg/kg/injection, schedule: Q01DX001 (ip), vehicle: saline): 0 of 6 (2×)
- survivor count [3]: 0 of 3
- survivor count (dose: 400.0 mg/kg/injection, schedule: Q01DX001 (ip), vehicle: saline): 0 of 6 and 1 of 6
- survivor count [4]: 0 of 3
- survivor count [9]: 0 of 6
